Laboratory results: the supplement of paper PMC11006884
The entries are a selection whose mix differs from that of the whole data set.

Chains of the proteins cited; added tags and fusions are not shown. Lines headed by an entry give the natural chain unless they say otherwise; changes in a name come on top.
UniProt Q15004: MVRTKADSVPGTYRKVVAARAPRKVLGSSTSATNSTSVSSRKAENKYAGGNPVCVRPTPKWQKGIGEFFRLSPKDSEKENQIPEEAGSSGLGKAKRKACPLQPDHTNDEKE
UniProt Q13885, whole entry, looked up: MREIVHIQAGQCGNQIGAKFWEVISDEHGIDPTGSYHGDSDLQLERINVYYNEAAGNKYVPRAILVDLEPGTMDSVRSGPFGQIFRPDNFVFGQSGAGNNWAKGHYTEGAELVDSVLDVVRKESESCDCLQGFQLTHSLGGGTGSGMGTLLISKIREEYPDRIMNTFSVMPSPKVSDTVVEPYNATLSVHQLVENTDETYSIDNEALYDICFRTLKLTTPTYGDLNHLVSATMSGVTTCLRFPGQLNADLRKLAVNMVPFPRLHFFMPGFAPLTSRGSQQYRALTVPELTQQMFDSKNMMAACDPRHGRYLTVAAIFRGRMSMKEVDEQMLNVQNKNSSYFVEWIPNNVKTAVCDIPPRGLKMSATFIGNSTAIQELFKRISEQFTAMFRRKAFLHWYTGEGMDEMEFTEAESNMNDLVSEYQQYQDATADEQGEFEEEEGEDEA
UniProt Q14697: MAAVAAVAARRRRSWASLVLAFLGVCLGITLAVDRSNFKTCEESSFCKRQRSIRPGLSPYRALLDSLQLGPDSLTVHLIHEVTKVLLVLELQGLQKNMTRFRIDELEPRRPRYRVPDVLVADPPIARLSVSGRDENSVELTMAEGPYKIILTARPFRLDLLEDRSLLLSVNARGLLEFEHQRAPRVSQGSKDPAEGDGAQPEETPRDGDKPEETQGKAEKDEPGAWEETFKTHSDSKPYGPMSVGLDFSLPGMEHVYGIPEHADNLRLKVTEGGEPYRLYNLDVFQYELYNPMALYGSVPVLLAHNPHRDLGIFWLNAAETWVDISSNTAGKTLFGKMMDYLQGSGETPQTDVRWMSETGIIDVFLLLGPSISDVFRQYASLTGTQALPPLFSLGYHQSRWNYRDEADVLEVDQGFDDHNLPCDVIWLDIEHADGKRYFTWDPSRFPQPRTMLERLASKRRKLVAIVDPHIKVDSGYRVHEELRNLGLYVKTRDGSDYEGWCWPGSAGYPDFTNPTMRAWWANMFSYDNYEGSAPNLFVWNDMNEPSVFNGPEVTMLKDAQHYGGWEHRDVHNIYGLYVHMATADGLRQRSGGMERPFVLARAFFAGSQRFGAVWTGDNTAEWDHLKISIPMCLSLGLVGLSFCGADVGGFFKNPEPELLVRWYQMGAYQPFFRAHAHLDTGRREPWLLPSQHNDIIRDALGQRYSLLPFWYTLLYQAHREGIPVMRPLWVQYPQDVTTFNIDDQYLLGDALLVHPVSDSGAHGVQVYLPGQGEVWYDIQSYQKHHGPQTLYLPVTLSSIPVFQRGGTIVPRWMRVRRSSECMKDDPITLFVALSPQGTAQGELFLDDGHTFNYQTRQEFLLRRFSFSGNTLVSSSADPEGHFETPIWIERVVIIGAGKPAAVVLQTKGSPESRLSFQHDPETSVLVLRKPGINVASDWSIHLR
UniProt Q14789: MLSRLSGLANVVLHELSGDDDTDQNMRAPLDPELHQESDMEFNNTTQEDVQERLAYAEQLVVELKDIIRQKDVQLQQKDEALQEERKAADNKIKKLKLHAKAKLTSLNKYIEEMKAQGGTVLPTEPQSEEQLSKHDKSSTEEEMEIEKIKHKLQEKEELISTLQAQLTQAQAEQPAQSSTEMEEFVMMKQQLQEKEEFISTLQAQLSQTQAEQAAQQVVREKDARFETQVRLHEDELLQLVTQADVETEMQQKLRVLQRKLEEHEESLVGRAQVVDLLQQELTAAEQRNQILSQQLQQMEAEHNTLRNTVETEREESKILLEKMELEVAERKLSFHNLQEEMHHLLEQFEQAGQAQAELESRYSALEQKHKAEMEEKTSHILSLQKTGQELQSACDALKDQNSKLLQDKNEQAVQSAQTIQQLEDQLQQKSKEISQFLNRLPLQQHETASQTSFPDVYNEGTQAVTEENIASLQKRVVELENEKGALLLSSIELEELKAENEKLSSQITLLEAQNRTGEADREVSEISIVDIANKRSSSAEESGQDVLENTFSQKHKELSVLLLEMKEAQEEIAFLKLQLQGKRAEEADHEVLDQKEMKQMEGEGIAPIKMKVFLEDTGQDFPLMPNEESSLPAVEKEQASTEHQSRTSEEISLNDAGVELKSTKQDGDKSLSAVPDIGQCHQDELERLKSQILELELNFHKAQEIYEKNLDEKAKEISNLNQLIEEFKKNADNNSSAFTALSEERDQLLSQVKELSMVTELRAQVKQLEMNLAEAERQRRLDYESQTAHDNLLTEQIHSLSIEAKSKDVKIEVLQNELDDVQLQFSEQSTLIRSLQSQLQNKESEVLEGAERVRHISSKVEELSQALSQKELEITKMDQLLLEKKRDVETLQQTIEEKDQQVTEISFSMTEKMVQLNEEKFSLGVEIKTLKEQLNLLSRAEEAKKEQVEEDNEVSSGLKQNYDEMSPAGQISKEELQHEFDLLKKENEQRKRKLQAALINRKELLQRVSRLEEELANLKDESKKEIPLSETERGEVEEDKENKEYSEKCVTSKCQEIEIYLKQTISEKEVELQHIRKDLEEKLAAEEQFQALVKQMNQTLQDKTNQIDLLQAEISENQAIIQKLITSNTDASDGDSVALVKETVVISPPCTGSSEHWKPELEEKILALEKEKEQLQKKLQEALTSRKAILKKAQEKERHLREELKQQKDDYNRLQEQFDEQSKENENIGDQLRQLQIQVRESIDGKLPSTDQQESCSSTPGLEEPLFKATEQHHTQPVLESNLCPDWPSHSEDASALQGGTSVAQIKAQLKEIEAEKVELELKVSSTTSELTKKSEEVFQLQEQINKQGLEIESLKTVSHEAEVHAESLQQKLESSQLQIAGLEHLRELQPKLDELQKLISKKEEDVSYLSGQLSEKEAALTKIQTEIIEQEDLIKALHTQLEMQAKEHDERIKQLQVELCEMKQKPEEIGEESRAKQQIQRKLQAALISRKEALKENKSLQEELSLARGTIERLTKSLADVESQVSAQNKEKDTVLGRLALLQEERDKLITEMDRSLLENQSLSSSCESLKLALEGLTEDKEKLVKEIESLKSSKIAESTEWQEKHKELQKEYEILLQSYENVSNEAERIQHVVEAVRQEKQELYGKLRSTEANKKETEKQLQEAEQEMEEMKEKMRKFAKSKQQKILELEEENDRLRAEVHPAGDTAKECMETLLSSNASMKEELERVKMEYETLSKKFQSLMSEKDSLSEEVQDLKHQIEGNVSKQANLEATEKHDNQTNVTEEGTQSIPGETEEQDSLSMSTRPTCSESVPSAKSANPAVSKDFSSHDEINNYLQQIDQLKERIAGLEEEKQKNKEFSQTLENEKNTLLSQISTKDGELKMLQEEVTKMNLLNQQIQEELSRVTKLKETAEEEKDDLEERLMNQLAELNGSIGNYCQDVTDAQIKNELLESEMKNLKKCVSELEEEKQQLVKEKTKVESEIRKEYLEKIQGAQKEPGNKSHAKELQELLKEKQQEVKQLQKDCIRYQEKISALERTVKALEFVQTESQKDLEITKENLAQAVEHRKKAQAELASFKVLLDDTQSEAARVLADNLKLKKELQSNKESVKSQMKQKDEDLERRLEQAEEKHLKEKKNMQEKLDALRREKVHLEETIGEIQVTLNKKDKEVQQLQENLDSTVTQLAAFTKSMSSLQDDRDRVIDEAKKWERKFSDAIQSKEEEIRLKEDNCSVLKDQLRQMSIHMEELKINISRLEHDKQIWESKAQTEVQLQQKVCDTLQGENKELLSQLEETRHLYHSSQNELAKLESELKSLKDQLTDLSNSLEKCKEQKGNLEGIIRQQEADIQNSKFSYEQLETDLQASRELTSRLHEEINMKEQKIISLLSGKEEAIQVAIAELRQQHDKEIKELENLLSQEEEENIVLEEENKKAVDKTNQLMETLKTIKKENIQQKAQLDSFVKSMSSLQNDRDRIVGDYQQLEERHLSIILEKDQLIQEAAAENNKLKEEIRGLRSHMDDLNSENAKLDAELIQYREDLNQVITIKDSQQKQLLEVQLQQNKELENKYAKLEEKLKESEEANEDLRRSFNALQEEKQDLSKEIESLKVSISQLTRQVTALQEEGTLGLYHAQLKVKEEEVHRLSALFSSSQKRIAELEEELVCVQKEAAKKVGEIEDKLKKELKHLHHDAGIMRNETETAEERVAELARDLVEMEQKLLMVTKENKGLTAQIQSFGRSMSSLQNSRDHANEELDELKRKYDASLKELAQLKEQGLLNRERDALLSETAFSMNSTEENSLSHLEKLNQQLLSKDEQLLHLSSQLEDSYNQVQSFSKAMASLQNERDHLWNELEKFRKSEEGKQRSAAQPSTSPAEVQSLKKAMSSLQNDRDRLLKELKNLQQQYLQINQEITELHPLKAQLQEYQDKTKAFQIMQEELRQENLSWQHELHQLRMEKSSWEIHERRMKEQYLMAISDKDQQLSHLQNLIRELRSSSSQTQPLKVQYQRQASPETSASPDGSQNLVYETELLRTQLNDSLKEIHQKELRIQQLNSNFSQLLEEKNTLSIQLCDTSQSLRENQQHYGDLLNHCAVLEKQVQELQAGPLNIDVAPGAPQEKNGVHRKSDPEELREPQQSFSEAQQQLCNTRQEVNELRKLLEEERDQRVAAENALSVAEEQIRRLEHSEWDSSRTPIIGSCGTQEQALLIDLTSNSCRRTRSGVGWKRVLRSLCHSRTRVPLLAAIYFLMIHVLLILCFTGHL
UniProt Q14247: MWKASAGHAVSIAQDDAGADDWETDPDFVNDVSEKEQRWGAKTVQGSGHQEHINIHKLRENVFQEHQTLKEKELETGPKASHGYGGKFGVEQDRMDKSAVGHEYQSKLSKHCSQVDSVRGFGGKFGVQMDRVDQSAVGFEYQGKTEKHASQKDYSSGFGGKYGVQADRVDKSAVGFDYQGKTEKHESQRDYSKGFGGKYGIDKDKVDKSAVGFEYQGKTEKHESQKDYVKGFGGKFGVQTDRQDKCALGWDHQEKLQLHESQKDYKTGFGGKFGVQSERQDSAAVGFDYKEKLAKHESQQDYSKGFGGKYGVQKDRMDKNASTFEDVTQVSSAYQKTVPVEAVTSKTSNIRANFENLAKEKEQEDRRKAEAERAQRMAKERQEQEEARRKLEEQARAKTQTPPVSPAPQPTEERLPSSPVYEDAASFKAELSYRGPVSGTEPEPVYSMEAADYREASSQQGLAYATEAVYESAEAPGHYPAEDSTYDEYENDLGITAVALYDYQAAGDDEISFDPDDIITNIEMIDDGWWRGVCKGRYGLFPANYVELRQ
UniProt Q14493, whole entry, looked up: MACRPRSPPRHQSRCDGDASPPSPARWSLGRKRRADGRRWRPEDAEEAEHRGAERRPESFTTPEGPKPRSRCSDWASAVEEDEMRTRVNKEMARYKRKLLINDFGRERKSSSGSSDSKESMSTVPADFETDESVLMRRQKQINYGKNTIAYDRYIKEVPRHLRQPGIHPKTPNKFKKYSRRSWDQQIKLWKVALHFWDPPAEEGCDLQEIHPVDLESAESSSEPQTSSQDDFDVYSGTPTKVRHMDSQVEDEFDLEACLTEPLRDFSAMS
UniProt Q14684: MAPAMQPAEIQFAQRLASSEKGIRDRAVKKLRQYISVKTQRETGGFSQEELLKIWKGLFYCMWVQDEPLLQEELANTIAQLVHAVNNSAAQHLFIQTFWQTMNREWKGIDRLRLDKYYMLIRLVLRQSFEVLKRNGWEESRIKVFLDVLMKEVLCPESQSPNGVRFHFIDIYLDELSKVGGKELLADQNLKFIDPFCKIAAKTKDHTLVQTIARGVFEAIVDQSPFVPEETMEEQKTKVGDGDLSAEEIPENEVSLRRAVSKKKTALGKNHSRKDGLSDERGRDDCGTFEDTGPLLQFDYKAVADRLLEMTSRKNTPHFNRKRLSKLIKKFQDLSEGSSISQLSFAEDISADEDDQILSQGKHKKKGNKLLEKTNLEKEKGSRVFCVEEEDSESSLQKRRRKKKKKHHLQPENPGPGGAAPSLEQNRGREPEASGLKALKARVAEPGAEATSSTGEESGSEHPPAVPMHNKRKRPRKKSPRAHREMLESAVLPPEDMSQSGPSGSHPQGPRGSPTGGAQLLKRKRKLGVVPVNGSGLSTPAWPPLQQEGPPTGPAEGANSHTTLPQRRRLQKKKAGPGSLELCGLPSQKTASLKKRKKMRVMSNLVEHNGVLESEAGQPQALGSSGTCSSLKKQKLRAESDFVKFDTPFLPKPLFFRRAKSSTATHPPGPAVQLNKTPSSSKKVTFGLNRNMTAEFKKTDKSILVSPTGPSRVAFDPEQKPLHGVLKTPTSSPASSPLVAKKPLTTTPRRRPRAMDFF

compound: COC(=O)C#Cc1ccccc1 [methyl 3-phenylpropiolate]; experiment: log2 ratio of iodoacetamide-alkyne labeling of the cysteine site, DMSO over compound (competition); higher = stronger covalent engagement of the cysteine by the compound, active = 1 or more; details: 500 µM; treatment time 1 h; system: HEK293T cell lysate
Method in brief: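 Reporter intensities give each cysteine's log2 competition ratio as the mean of control channels over the mean of compound channels. The samples were HEK293T lysate (2 mg/mL) given vehicle or electrophile (500 µM, 1 h, ambient temperature), then iodoacetamide alkyne (1 h), followed by click coupling to sCIP-TMT reagents, pooling, trypsin digestion overnight at 37 °C, streptavidin enrichment, acid elution, Orbitrap Eclipse LC-MS/MS with FAIMS and FragPipe quantification. Duplicate channels and three replicates were run, and cysteines quantified in only one replicate were discarded.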

log2 ratio of iodoacetamide-alkyne labeling, inactive:
UniProt Q15004_C54 0.299
UniProt Q13885_C303 0.488
GANAB C502 (UniProt Q14697) 0.0736
RAPGEF1 C817 (UniProt Q13905) 0.406
FHL3 C10 (UniProt Q13643) -0.0308
GOLGB1 C1285 (UniProt Q14789) 0.284
DYNC1H1 C2076 (UniProt Q14204) 0.0469
RIPK1 C325 (UniProt Q13546) 0.409
HLTF C812 (UniProt Q14527) 0.0664
TTLL12 C370 (UniProt Q14166) -0.154
CTTN C112 (UniProt Q14247) 0.88
UniProt Q13885_C354 0.511
PUM1 C5 (UniProt Q14671) 0.834
SLBP C72 (UniProt Q14493) 0.692
SMC1A C987 (UniProt Q14683) 0.473
DCTN1 C636 (UniProt Q14203) 0.407
SAFB2 C361 (UniProt Q14151) 0.0563
ZNF638 C879 (UniProt Q14966) 0.109
CKAP5 C592 (UniProt Q14008) 0.385
UniProt Q13885_C129 0.82
DYNC1H1 C2594 (UniProt Q14204) 0.0682
MELK C339 (UniProt Q14680) 0.749
ITPR1 C530 (UniProt Q14643) 0.211
MDC1 C128 (UniProt Q14676) 0.14
TTLL12 C642 (UniProt Q14166) 0.0501
SCRIB C22 (UniProt Q14160) 0.711
RRP1B C286 (UniProt Q14684) 0.229
MTMR3 C826 (UniProt Q13615) 0.456
GANAB C822 (UniProt Q14697) 0.538
GNL2 C362 (UniProt Q13823) 0.0745
SHROOM2 C836 (UniProt Q13796) 0.986
CKAP5 C441 (UniProt Q14008) 0.364
FHL1 C92 (UniProt Q13642) 0.228
TRIM25 C186 (UniProt Q14258) 0.237
NUMA1 C1136 (UniProt Q14980) 0.0168
PRPF4B C962 (UniProt Q13523) 0.222
UniProt Q14004_C987 0.324
